Test results reported in publication PMC5167405.
Results are given in words; binding and its absence hold for the method and conditions named. Binding seen in cells or lysates may run through a third protein. Sequences can lack the tags named with a protein.

By UniProt entry, the sequences of proteins in these tests, tags left out.
UniProt P42224: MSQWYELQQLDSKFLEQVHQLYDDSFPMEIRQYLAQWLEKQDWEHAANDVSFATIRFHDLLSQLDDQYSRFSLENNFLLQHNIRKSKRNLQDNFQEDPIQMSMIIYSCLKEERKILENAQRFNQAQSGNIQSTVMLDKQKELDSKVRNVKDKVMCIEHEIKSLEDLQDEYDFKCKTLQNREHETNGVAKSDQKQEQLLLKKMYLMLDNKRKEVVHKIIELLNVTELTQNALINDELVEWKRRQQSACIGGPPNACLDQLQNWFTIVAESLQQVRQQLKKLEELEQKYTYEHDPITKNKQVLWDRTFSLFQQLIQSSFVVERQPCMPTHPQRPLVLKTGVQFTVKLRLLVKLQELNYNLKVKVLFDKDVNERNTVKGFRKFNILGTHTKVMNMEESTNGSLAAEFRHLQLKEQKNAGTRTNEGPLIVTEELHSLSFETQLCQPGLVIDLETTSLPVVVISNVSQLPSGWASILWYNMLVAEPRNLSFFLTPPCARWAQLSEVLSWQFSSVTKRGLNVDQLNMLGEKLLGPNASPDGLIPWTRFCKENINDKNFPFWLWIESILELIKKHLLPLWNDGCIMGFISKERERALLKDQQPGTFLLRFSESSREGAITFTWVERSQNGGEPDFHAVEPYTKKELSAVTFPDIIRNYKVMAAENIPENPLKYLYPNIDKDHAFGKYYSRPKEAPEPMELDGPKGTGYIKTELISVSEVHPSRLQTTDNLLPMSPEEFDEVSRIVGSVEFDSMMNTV

Target: T1, HA-tagged IKKα (exogenous, wild type) (human (cDNA from HeLa cells)) (UniProt O15111)
T1 sequence: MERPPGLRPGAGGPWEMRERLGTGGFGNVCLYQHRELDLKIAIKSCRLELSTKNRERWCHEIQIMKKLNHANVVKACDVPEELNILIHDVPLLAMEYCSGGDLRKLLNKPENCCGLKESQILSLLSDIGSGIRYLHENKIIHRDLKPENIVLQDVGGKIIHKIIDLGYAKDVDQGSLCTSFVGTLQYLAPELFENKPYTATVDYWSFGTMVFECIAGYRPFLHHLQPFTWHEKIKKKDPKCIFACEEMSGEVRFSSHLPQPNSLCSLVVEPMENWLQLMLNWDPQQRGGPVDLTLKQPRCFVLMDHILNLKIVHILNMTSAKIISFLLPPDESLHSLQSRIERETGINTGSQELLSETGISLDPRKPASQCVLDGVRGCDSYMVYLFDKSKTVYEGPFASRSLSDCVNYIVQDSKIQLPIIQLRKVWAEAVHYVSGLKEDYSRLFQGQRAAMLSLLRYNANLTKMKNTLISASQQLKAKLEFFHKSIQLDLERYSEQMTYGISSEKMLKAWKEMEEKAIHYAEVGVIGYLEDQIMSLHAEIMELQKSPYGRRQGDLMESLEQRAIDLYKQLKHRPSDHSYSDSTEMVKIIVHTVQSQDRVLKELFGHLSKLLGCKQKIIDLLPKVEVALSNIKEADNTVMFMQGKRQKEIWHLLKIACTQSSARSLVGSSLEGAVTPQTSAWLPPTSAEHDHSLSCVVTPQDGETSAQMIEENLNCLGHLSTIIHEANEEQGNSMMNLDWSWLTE
Assay: co-IP; anti-HA antibody beads, lysate of HeLa cells transfected with HA-tagged IKKα, overnight at 4°C, 5 washes PBS-0.1% Tween 20; cells with or without poly I:C for 4 h; blot with anti-STAT1

- binding: no binding
Substance: signal transducer and activator of transcription-1 (STAT1), endogenous (from UniProt P42224 1-750)
